# In PMC6676524:
# Chains of the proteins cited; added tags and fusions are not shown. Residues count along the entry.
# UniProt P35869, residues 11-848: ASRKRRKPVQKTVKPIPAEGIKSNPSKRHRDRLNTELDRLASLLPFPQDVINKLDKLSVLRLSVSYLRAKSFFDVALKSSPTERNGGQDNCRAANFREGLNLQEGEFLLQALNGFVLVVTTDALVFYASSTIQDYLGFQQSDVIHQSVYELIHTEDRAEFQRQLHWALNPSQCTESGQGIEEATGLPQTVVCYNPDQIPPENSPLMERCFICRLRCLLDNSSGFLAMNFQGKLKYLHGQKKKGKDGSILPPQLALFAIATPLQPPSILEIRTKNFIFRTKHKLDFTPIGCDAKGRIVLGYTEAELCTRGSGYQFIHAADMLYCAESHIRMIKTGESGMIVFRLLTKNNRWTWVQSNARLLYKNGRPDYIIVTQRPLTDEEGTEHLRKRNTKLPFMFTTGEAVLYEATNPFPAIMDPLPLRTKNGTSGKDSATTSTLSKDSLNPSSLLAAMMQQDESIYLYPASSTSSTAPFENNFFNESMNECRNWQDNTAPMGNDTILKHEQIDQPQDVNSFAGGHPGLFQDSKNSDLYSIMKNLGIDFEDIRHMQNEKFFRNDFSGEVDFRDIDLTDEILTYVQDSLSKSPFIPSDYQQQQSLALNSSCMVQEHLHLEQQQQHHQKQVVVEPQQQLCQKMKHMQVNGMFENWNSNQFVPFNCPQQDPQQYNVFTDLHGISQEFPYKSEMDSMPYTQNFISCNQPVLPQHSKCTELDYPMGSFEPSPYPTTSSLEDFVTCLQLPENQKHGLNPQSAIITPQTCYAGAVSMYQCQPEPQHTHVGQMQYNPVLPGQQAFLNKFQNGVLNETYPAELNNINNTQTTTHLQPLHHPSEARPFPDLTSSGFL
# These are yes or no findings as the source states them, for the method shown. Binding seen in cells or lysates may run through a third protein. Some entries that bind do so weakly or less than the wild type.
# Columns and labels:
# [1] = molecular target: G protein estrogen receptor (GPER) (human (endogenous in SkBr3)) (UniProt Q99527); test: co-IP; SkBr3 cells treated with vehicle or 1 uM 3MC for 1 h; RIPA lysates (250 ug protein) immunoprecipitated with anti-GPER, anti-AHR or anti-EGFR antibodies and Protein A/G agarose; each immunoprecipitate immunoblotted for GPER, AHR and EGFR; nonspecific IgG as control
# [2] = molecular target: aryl hydrocarbon receptor (AHR) (human (endogenous in SkBr3)) (UniProt P35869); test: as above
Substance,binding [1],binding [2]
aryl hydrocarbon receptor (AHR) (from UniProt P35869 11-848),binds,–
epidermal growth factor receptor (EGFR) (from UniProt P00533 25-1210),binds,binds
